Reference: US11992536B2, “Dual-targeting compound and preparation method and application thereof” (YANTAI LANNACHENG BIOTECHNOLOGY CO., LTD., priority 2022, dated 2024)
Not every detail of the peptide structures is certain; ends, links or a residue may be inferred.

Assays:
[1] = tested on: HT1080-FAP tumor cells; experiment: Cell uptake and blocking experiment in HT1080-FAP tumor cells; assay type: cell-based
[2] = tested on: HT1080-FAP tumor-bearing mice; assay type: in vivo; details: 7.4 MBq intravenous, time points of imaging acquisition
[3] = Stability of 68Ga-FAPI-RGD in normal saline or PBS (radiochemical purity by HPLC); assay type: physicochemical; details: 37° C., 0.5 h, 1 h and 4 h

For `N#C[C@@H]1CCCN1C(=O)CNC(=O)c1ccnc2ccc(OCCCN3CCN(C(=O)CCOCCOCCNC(=O)[C@H](CCC(=O)NCCOCCOCCC(=O)NCCCC[C@@H]4NC(=O)[C@@H](Cc5ccccc5)NC(=O)[C@H](CC(=O)O)NC(=O)CNC(=O)[C@H](CCCNC(=N)N)NC4=O)NC(=O)CN4CCN(CC(=O)O)CCN(CC(=O)O)CC4)CC3)cc12` [68Ga-FAPI-RGD, metal not drawn], the cell uptake [1] was “rapid cell uptake”, the “incubation time at which maximum uptake is reached” value [1] was 30 min and the “persistence of cell uptake level” value ([1]; after maximum uptake) was “remained at similar uptake level for 2 h”. For the same compound, the “visibility of tumors in MicroPET images” value [2] was “clearly visible”, the radiochemical purity ([3]; after incubation in normal saline, HPLC) was “greater than 99%” and the decomposition after incubation ([3]; normal saline) was “not obviously decomposed”.
